Measurements reported in publication PMC4424349.
No constants are given. Whether binding was seen depends on the method and setting. In cells and extracts the contact can be indirect. Where a sequence is shown, tags or fusion partners need not be part of it.

Target: T1, PfMyoB-GFP (Plasmodium falciparum myosin B with C-terminal GFP) (Plasmodium falciparum 3D7) (UniProt Q8I465)
T1 sequence: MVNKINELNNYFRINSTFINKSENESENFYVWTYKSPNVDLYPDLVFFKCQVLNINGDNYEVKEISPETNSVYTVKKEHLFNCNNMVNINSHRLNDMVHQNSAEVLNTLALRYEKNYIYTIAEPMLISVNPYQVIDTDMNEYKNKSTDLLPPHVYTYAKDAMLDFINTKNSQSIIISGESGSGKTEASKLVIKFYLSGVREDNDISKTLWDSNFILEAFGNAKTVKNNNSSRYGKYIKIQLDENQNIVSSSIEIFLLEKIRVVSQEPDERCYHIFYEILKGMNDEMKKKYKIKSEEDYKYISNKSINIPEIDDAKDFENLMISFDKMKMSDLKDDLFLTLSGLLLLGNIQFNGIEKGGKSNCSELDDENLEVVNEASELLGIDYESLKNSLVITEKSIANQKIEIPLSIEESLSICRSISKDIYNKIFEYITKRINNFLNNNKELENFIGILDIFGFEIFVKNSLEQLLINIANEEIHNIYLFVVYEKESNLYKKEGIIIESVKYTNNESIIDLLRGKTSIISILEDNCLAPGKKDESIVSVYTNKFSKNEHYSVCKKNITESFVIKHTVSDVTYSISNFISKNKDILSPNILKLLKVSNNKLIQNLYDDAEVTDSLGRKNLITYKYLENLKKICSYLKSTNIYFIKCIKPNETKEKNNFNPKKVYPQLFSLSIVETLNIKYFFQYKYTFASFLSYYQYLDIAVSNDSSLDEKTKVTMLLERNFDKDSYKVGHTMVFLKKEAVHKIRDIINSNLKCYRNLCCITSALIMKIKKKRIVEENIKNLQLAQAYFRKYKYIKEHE
Experiment: co-IP; GFP-Trap agarose beads on schizont lysates (0.5% Nonidet P-40, 150 mM NaCl, 10 mM Tris-HCl pH 7.5, diluted to 0.2% detergent), 2 h at 4 °C, washes with 150 mM and 300 mM NaCl; Western blot with anti-GFP, anti-GAP50, anti-GAP45, anti-MTIP; 3D7 lysate as control

glideosome-associated protein 50 (GAP50)
binding: no binding
